We go through 37 compounds from PMC6753678, “Fueling Open Innovation for Malaria Transmission-Blocking Drugs: Hundreds of Molecules Targeting Early Parasite Mosquito Stages” (Frontiers in Microbiology, 2019).

One data set relates to P. berghei ookinete development.
Experiment: not given
Conditions: not given
Regarding `O=c1cc(NCCCN(Cc2ccccc2)Cc2ccccc2)[nH]c2ccccc12` [TCMDC-139368], the “Assay tox ratio Pb ODA” value is reported as 11.81.

As to `COc1ccc(Cn2ncc3c4c(N)nc(N)nc4ccc32)cc1OC` [TCMDC-131934], the “Assay tox ratio Pb ODA (red: <10-fold selectivity; green: >10-fold)” value worked out at 0.0014.

Take `Cc1noc(C)c1-c1cccc(CNCc2ccc(-c3cccc(-c4nc5cc(F)ccc5[nH]4)c3)cc2)c1.O=C(O)C(F)(F)F` [TCMDC-133060]: the “Assay tox ratio Pb ODA” value was 1.13.

Regarding `CC(C#N)Cc1ccc(-c2cnc(N)c3cc(-c4ccnc(N)n4)ccc23)cc1` (centres unmarked) [TCMDC-134547], the “Assay tox ratio Pb ODA” value is 6.78.

Consider `CCc1c(C)nc(-n2nc(C)cc2NC(=O)c2ccc(OC)cc2OC)[nH]c1=O` [TCMDC-124937], for which the “Assay tox ratio Pb ODA (red: <10-fold selectivity; green: >10-fold)” value turned out to be 6.63.

For `COc1ccc2ncc(C#N)c(CCN3CCC(NCc4ccc5c(c4)NC(=O)CO5)CC3)c2c1.Cl` [TCMDC-135645], the “Assay tox ratio Pb ODA (red: <10-fold selectivity; green: >10-fold)” value is given as 85.12.

Regarding `O=C(NCC1CC1)C1CCN(C(c2ccc(Cl)cc2)c2ccc(Cl)cc2)CC1` [TCMDC-135522], the “Assay tox ratio Pb ODA” value was 62.90.

Take `CC(=O)Nc1cccc(Nc2c3ccccc3nc3ccccc23)c1` [TCMDC-123741]: the “Assay tox ratio Pb ODA” value is on record as 17.92.

For `Cc1cc2nc(/N=C(\N)NC(=O)NC3CCCCC3)nc(C)c2cc1C` [TCMDC-124528], the “Assay tox ratio Pb ODA (red: <10-fold selectivity; green: >10-fold)” value came to 10.06.

Regarding `COc1cc(F)c2ncc(C#N)c(CCN3CCC(NCc4ccc5c(c4)OCCO5)CC3)c2c1.Cl` [TCMDC-135367], the “Assay tox ratio Pb ODA” value is 17.90.

For the compound `Cc1[nH]c(C)c(-c2ccc(OCCCc3ccccn3)cc2)c(=O)c1Br.Cl` [TCMDC-135795], the “Assay tox ratio Pb ODA (red: <10-fold selectivity; green: >10-fold)” value was determined as 0.29.

For `CCN(C)C(=O)n1ncc2c3c(N)nc(N)nc3ccc21` [TCMDC-137828], the “Assay tox ratio Pb ODA (red: <10-fold selectivity; green: >10-fold)” value was found to be 0.09.

On to `Cc1[nH]c(C)c(-c2ccc(-c3ccc(OC(F)(F)F)cc3)cc2)c(=O)c1Br` [TCMDC-134726], for which the “Assay tox ratio Pb ODA (red: <10-fold selectivity; green: >10-fold)” value is reported as 301.46.

As for `CCN(CC)S(=O)(=O)n1ncc2c3c(N)nc(N)nc3ccc21.Cl` [TCMDC-137302], the “Assay tox ratio Pb ODA (red: <10-fold selectivity; green: >10-fold)” value is 0.0266.

Turning to `CCc1c(CCNCCCCCCNCCc2ccc([N+](=O)[O-])cc2)ccc(OC)c1OC.Cl` [TCMDC-132066], the “Assay tox ratio Pb ODA” value is 0.83.

With `COc1ccc2nc3cc(Cl)ccc3c(NCCCN3CCNCC3)c2c1.Cl` [TCMDC-137580], the “Assay tox ratio Pb ODA (red: <10-fold selectivity; green: >10-fold)” value is 8.82.

Turning to `COc1ccc2ncc(F)c(CCN3CC[C@H](NCc4cc(C#N)c5c(c4)OCCO5)[C@H](O)C3)c2c1` [TCMDC-136207], the “Assay tox ratio Pb ODA” value is given as 50.89.

Regarding `CCN(CC)CCCNc1nccc(N(C)c2ccc(NC(=O)Nc3cc(C(F)(F)F)ccc3F)cc2)n1.O=C(O)C(F)(F)F` [TCMDC-141634], the “Assay tox ratio Pb ODA” value is reported as 0.31.

As for `COc1ccc2ncc(Cl)c(CCN3CCC(NCc4ccc5c(n4)NC(=O)CO5)CC3)c2c1.Cl` [TCMDC-141808], the “Assay tox ratio Pb ODA (red: <10-fold selectivity; green: >10-fold)” value is 1.06.

In the case of `Cc1nc(C)c(-c2ccc(Oc3ccc(OC(F)(F)F)cc3)cc2)c(OC(=O)c2ccc(CN(C)C)cc2)c1Cl` [TCMDC-137382], the “Assay tox ratio Pb ODA (red: <10-fold selectivity; green: >10-fold)” value was found to be 53.17.

Still in this data set, the particulars now being: unified cytotox / IC50; <10-fold red, >10-fold green.
For the compound `CN1c2ccc([N+](=O)[O-])cc2C(C)(C)C12C=Cc1cc(Br)cc([N+](=O)[O-])c1O2` (centres unmarked) [TCMDC-124178], the “Assay tox ratio Pb ODA” value is given as 18.19.

`Cl.c1ccc2c(NCCCCCCCCCNc3c4ccccc4nc4ccccc34)c3ccccc3nc2c1` [TCMDC-124286]: the “Assay tox ratio Pb ODA” value amounted to 2.71.

Turning to `COc1ccc(C#Cc2ccc(-c3c(C)[nH]c(C)c(Cl)c3=O)cc2)cc1` [TCMDC-135655], the “Assay tox ratio Pb ODA” value is given as 86.26.

Regarding `CCCC(C)n1ccc2c3c(N)nc(N)nc3ccc21` (centres unmarked) [TCMDC-137964], the “Assay tox ratio Pb ODA” value turned out to be 0.00673.

In the case of `Br.CCCc1cc(C)ccc1OCCCON1C(N)=NC(N)=NC1(C)C` [TCMDC-131320], the “Assay tox ratio Pb ODA” value turned out to be 0.000333.

Regarding `Cc1cc(F)ccc1-c1nc(NCC(O)CNCCc2ccccc2)nc2c1ccc(=O)n2-c1c(F)cccc1F.O=C(O)C(F)(F)F` (centres unmarked) [TCMDC-141784], the “Assay tox ratio Pb ODA” value was found to be 3.02.

`CC(C)N1CCN(CCCNc2c3ccccc3nc3ccccc23)CC1.Cl` [TCMDC-137547]: the “Assay tox ratio Pb ODA” value came to 3.89.

In the case of `CCCCCCCc1ccc(-c2c(C)[nH]c(C)c(Cl)c2=O)cn1` [TCMDC-135816], the “Assay tox ratio Pb ODA” value is listed as 53.19.

As for `CCN1CCN(CCCNc2c3ccccc3nc3ccccc23)CC1.Cl` [TCMDC-137546], the “Assay tox ratio Pb ODA” value turned out to be 2.99.

As to `COc1ccc2nccc(N3CCC(CCNCc4ccc5c(n4)NC(=O)CS5)CC3)c2n1.Cl` [TCMDC-141944], the “Assay tox ratio Pb ODA” value turned out to be 1.66.

With `Cl.Cl.c1ccc2c(NCCCCCCNc3c4ccccc4nc4ccccc34)c3ccccc3nc2c1` [TCMDC-124285], the “Assay tox ratio Pb ODA” value was found to be 5.05.

For `Cc1[nH]c(C)c(-c2ccc(-c3ccc(OC(F)(F)F)cc3)cc2)c(=O)c1Cl` [TCMDC-136060], the “Assay tox ratio Pb ODA” value amounted to 1199.36.

In the case of `Cc1[nH]c(C)c(-c2ccc(-c3cc(C(F)(F)F)cc(C(F)(F)F)c3)nc2)c(=O)c1Br` [TCMDC-136015], the “Assay tox ratio Pb ODA” value was 11.74.

In the next data set the test system is P. falciparum female gametocytes. The experiment in a line: P. falciparum female gametogenesis assay (Pf FGAA). Conditions: unified cytotox / IC50; <10-fold red, >10-fold green.
Consider `Cl.c1ccc2c(NCCCCCCCCCNc3c4ccccc4nc4ccccc34)c3ccccc3nc2c1` [TCMDC-124286], for which the “Assay tox ratio Pf FGAA” value was determined as 3.06.

Still in this data set, the particulars now being: unified cytotox / Pf FGAA IC50; <10-fold selectivity red, >10-fold green.
Turning to `CC(CO)(CO)NCc1cc2c3ccccc3c(CNC(C)(CO)CO)cc2c2ccccc12.CS(=O)(=O)O` [TCMDC-137752], the “Assay tox ratio Pf FGAA” value came out at 1.66.

For `Cl.N#Cc1c(F)cc(N2CCC(NCC[C@H](N)Cc3ccc(F)c(F)c3)CC2)cc1F` [TCMDC-132121], the “Assay tox ratio Pf FGAA” value is recorded as 6.30.

In another data set the test system is P. falciparum late stage (stages IV-V) gametocytes. The experiment in a line: P. falciparum late stage gametocyte ATP depletion assay (Pf GC-ATP). To be noted: unified cytotox / IC50; <10-fold red, >10-fold green.
On to `CN1c2ccc([N+](=O)[O-])cc2C(C)(C)C12C=Cc1cc(Br)cc([N+](=O)[O-])c1O2` (centres unmarked) [TCMDC-124178], for which the “Assay tox ratio Pf GC-ATP” value is 26.85.

On to `Cl.c1ccc2c(NCCCCCCCCCNc3c4ccccc4nc4ccccc34)c3ccccc3nc2c1` [TCMDC-124286], for which the “Assay tox ratio Pf GC-ATP” value is recorded as 3.68.

For the compound `Cl.Cl.c1ccc2c(NCCCCCCNc3c4ccccc4nc4ccccc34)c3ccccc3nc2c1` [TCMDC-124285], the “Assay tox ratio Pf GC-ATP” value came out at 30.67.

The data set is the same for the next values; noted with them: unified cytotox / Pf GC-ATP IC50; red: <10-fold selectivity; green: >10-fold.
For the compound `FC(F)c1nc2ccccc2n1-c1nc(N2CCOCC2)nc(N2CCOCC2)n1` [TCMDC-137004], the “Assay tox ratio Pf GC-ATP” value is 0.29.

As to `Cl.c1ccc2c(c1)cc(CNCCCN1CCN(CCCNCc3cc4ccccc4c4ccccc34)CC1)c1ccccc12` [TCMDC-137914], the “Assay tox ratio Pf GC-ATP” value stood at 12.34.
